Source: PubChem BioAssay AID493014 (National Center for Advancing Translational Sciences (NCATS), 2011)
Some of the results follow. The main result of the screen is listed elsewhere. These columns were measured beside it and carry no call. Most of these compounds were active or inconclusive in the main read-out, so they are no random draw. Words in brackets tell the shape of the fitted curve; partial curves, single points and poor fits give uncertain potencies.

Experiment: qHTS Assay to Find Inhibitors of Chronic Active B-Cell Receptor Signaling
Conditions: ABC-DLBCL IkBa-CBG/CBR reporter, luminescence ratio (green luciferase fused to IkBa over red control in TMD8 lymphoma cells), 4 h
Outline: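 Compounds up to 46 uM were incubated four hours with TMD8 cells whose green CBG68 luciferase is fused to IkappaBalpha; red CBR luminescence normalised the signal, and concentration-effect curves were fitted to fusion, red and ratio data.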

[1] = measured here: CBR red luminescence, cell number
[2] = measured here: IkBa-CBG green luminescence

SMILES	AC50 [1]	AC50 [2]
O=C(Nc1ccc(Cl)c(Cl)c1)N1CCSCC1	20.6 µM [falling, single point]	
CCC(=O)c1ccc(N2CCN(S(=O)(=O)c3ccccc3)CC2)c(F)c1	1.41 µM [rising, full curve]	
Oc1ccc2ccccc2c1CNc1cnc2ccccc2c1	11.6 µM [falling, partial curve]	
O=C(CNC(=O)c1ccc(Br)o1)Nc1cccc(S(=O)(=O)N2CCOCC2)c1	29.1 µM [falling, single point]	
CCOc1ccccc1N(C(=O)Nc1ccc(Cl)cc1)C1=NC(C)CS1 (configuration not stated)	2.06 µM [rising, partial curve]	
Clc1ccc(C(c2nnnn2CCc2ccccc2)N2CCSCC2)cc1 (configuration not stated)	6.51 µM [falling, full curve, poor fit]	
CC(C)[C@@H](N)C(=O)N/N=C/c1ccc2ncccc2c1	11.2 µM [falling, single point]	
CCn1c(O)c(N=NC(=O)CNC(=O)/C=C/c2ccccc2)c2ccccc21	14.1 µM [rising, single point]	
CCC1(c2ccc(Cl)cc2)NC(=S)N(c2ccc(C)c(C)c2)N1 (configuration not stated)	10 µM [rising, partial curve, poor fit]	
O=C(C1=C[C@@H](c2csc3ccccc23)C[C@@H](OCc2ccc(CO)cc2)O1)N1CCN(Cc2ccc3c(c2)OCO3)CC1	31.6 µM [falling, single point]	
COc1ccc(C=C2c3ccccc3C(=O)c3ccccc32)c(OC)c1	10 µM [rising, partial curve]	8.91 µM [falling, partial curve]
Nc1nonc1-c1nc2ccccc2[nH]1	29.1 µM [falling, single point]	
COc1ccccc1Nc1ccc(NS(=O)(=O)c2ccc(C(C)=O)cc2)cc1	10 µM [falling, single point]	
CCCn1c(=O)c(C(=O)NC(C)c2ccccc2)c(O)c2ccccc21 (configuration not stated)	3.16 µM [rising, full curve, poor fit]	
Cc1onc(-c2ccc(Cl)cc2Cl)c1-c1csc(COc2ccccc2)n1	0.708 µM [falling, partial curve, poor fit]	
COc1ccccc1Nc1nnc(SCC(=O)c2c(N)n(C3CC3)c(=O)[nH]c2=O)s1	1.16 µM [falling, partial curve, poor fit]	
O=C(Cn1nnc(-c2ccccc2)n1)NCc1ccc2c(c1)OCO2	8.91 µM [falling, partial curve, poor fit]	
Cc1ccc(C(=O)Nc2nnc(-c3ccco3)o2)cc1	16.4 µM [falling, partial curve]	
CN1CCN(NC(=S)Nc2ccc(Oc3ccccc3)cc2)CC1	35.5 µM [falling, single point]	
COc1ccc(CCN2CC(C(=O)Nc3ccccc3F)CC2=O)cc1OC (configuration not stated)	0.164 µM [rising, full curve, poor fit]	
O=C(Nc1nc(-c2ccccn2)cs1)c1ccc(S(=O)(=O)N2CCCCC2)cc1	35.5 µM [falling, single point]	

Random excerpt: 2 records from the list.
SMILES	AC50 [1]	AC50 [2]
O=C(C1=C[C@@H](c2csc3ccccc23)C[C@@H](OCc2ccc(CO)cc2)O1)N1CCN(Cc2ccc3c(c2)OCO3)CC1	31.6 µM [falling, single point]	
CCOc1ccccc1N(C(=O)Nc1ccc(Cl)cc1)C1=NC(C)CS1 (configuration not stated)	2.06 µM [rising, partial curve]	

Carrying on:

SMILES	AC50 [1]	AC50 [2]
N=c1c2c(n(Cc3ccc(Br)cc3)c3c1CCC3)CCCC2	10.3 µM [falling, partial curve, poor fit]	
Cc1ccc(/C=C2\SC(=S)N(CCCC(=O)Nc3nccs3)C2=O)cc1	2.31 µM [falling, full curve]	
CCCCC(=O)N/N=C/c1ccc(Sc2cccc3cccnc23)o1	29.1 µM [falling, single point]	14.6 µM [falling, single point]
CCC1CCCCN1S(=O)(=O)c1ccc2c(c1)CCN2C(=O)C1CCC1 (configuration not stated)	6.31 µM [falling, single point]	
O=C(N/N=C/c1ccccn1)c1cc([N+](=O)[O-])cc([N+](=O)[O-])c1		10 µM [falling, partial curve, poor fit]
Cc1onc(-c2ccccc2Cl)c1C(=O)NC(=S)NCC(=O)c1ccccc1	3.55 µM [rising, full curve]	
COc1cccc(/C=N/n2c(C)nc3ccccc3c2=O)c1O	8.91 µM [falling, partial curve]	
CNc1c(C(=O)O)ccc2c1C(=O)c1ccccc1C2=O	1.3 µM [rising, full curve]	
CCOC(=O)N1CCN(S(=O)(=O)c2ccc(C(=O)N(CCCN(C)C)c3nc4c(F)cc(F)cc4s3)cc2)CC1	0.651 µM [rising, single point]	
O=C(c1ccccc1)c1ccccc1C(=O)c1ccccc1	10 µM [rising, single point]	
CCn1cc(CN2CCCC(C(=O)Nc3cccc(-c4cc5ccccc5[nH]4)c3)C2)c(C)n1 (configuration not stated)	28.2 µM [falling, single point]	
Cn1ncc(Br)c1NC(=O)Nc1ccc(Cl)cc1	3.55 µM [rising, single point]	
Cc1cc(C)nc(SCCC(=O)Nc2ccccc2C)n1	0.112 µM [falling, full curve, poor fit]	
COc1cc(/C=N/NS(=O)(=O)c2ccccc2)c(OC)c(OC)c1	0.631 µM [falling, full curve, poor fit]	
O=C(CSc1nnc(-c2cccnc2)n1Cc1ccccc1)NCc1ccco1	6.31 µM [rising, single point]	
COc1ccc(NC(=O)CC2C(=O)Nc3ccccc3N2CC(=O)N2CCCC2)cc1 (configuration not stated)	16.4 µM [rising, single point]	
COc1ccc(/C=N/NC(=O)c2ccc(Br)o2)cc1Cn1cc([N+](=O)[O-])cn1	29.1 µM [falling, single point]	25.9 µM [rising, single point]
Cc1cc(NC(=O)c2ccc(NC(=O)CC(C)C)cc2)no1	32.6 µM [falling, single point]	1.16 µM [rising, full curve, poor fit]
Cc1cc(C)cc(NC(=O)C(=S)NCc2ccccc2)c1	1 µM [rising, partial curve, poor fit]	
COc1ccc2c(CC(=O)Nc3nc(C)cs3)coc2c1	12.6 µM [falling, partial curve, poor fit]	
Cc1ccc2c(c1)N(CCC(=O)NCCN1CCOCC1)C(=O)CO2	6.31 µM [rising, single point]	

3 structures already listed, ordered by SMILES length, smallest number first:
SMILES	AC50 [1]	AC50 [2]
CCC1(c2ccc(Cl)cc2)NC(=S)N(c2ccc(C)c(C)c2)N1 (configuration not stated)	10 µM [rising, partial curve, poor fit]	
CCn1c(O)c(N=NC(=O)CNC(=O)/C=C/c2ccccc2)c2ccccc21	14.1 µM [rising, single point]	
COc1ccc(/C=N/NC(=O)c2ccc(Br)o2)cc1Cn1cc([N+](=O)[O-])cn1	29.1 µM [falling, single point]	25.9 µM [rising, single point]

The listing continues.

SMILES	AC50 [1]	AC50 [2]
Cc1onc(-c2ccccc2)c1C(=O)OCC(=O)Nc1cc(S(=O)(=O)N2CCOCC2)ccc1Cl	12.6 µM [falling, partial curve, poor fit]	
CCOC(=O)c1sc(/N=C/c2ccc(O)cc2O)cc1C	20.6 µM [falling, partial curve]	
Nc1ccc2c(c1)CC(=O)c1ccccc1S2	20.6 µM [falling, partial curve, poor fit]	
CN1CCC(=NNC(=O)CN(c2ccc([N+](=O)[O-])cc2)S(=O)(=O)c2ccccc2)CC1	10 µM [falling, partial curve, poor fit]	
Cc1ccc(NC(=S)N2CCCC(c3ccccc3)=N2)cc1	2.24 µM [falling, partial curve, poor fit]	
CC1CC(C)CN(Cc2nc(N)nc(Nc3ccc4ccccc4c3)n2)C1 (configuration not stated)	1.84 µM [rising, partial curve, poor fit]	
COc1ccc(NC(=O)CN(C)C(=O)c2ccc(N3CCCCC3)c([N+](=O)[O-])c2)cc1	32.6 µM [falling, single point]	
Cc1ccc(C(=O)Nc2ccc3nccnc3c2)cc1	11.2 µM [falling, partial curve]	
CC1(C)CC2CC(C)(CN2c2ncnc3ccc(Br)cc23)C1 (configuration not stated)	20.6 µM [falling, single point]	
CC(C)c1ccc(-c2cc(C(=O)NN3CCN(C)CC3)c3ccccc3n2)cc1	25.9 µM [falling, single point]	
NC(=O)C1CCN(C(=O)CSc2nc3ccccc3[nH]2)CC1	29.1 µM [falling, single point]	
N#Cc1c(N)n(-c2ccc(C(=O)O)cc2)c2nc3ccccc3nc12	8.91 µM [falling, partial curve]	
O=C(CCC(=O)Nc1cccc([N+](=O)[O-])c1)N/N=C/c1cccs1	0.501 µM [rising, single point]	
COc1ccc(CC(=O)OCC(=O)NC(=O)Nc2ccccc2F)cc1	0.82 µM [rising, partial curve, poor fit]	
O=C(CNC(=O)c1cccs1)NCCN1CCN(c2ccccc2F)CC1	3.66 µM [rising, full curve, poor fit]	
CSC1=N/C(=C\c2cccnc2)C(=O)N1c1ccccc1	16.4 µM [falling, partial curve]	
C/C(Cl)=C/Cn1c(SC(C)C)nc2c1c(=O)[nH]c(=O)n2C	14.6 µM [rising, partial curve, poor fit]	
CCCn1c(N)c(C(=O)CSc2nnc(C3CC3)n2C2CC2)c(=O)[nH]c1=O	23.1 µM [rising, partial curve, poor fit]	
Cc1ccc(C)c(-c2cc(C(=O)Nc3nccs3)c3ccccc3n2)c1	3.55 µM [falling, full curve]	
COc1cccc(/C=N\NC(C)=O)c1OC/C=C/c1ccccc1	3.16 µM [rising, partial curve, poor fit]	
CSc1ccc(NC(=O)/C=C/C(=O)O)cc1	12.6 µM [rising, single point]	
